Assay results as given in PMC7457494.
No constants are given. Whether binding was seen depends on the method and setting. Binding seen in cells or lysates may run through a third protein. Some results given as binding are weak or reduced against the parent protein; the word gives no strength.

The chains behind the UniProt entries cited, without tags or fusion partners.
UniProt Q00987: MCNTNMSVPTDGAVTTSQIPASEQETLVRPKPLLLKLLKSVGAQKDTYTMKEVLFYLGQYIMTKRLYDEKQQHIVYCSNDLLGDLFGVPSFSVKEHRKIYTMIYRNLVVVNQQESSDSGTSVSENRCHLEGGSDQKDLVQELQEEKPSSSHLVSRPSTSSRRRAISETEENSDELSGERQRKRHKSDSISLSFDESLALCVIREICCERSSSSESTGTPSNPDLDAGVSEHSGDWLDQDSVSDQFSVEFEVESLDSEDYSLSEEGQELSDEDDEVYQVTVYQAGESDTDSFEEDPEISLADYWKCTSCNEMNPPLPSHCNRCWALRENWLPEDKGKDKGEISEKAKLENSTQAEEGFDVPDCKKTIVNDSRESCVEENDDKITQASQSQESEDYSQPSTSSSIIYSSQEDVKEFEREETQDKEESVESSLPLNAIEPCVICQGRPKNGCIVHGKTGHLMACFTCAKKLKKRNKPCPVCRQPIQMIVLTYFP

Target: Mouse double minute 2 homolog (MDM2) (human (endogenous in A375)) (UniProt Q00987)
Assay: proximity ligation; A375 cells on coverslips, treated with DMSO or 10 uM Nutlin-3 for 24 h, fixed with 4% paraformaldehyde, permeabilized with 0.25% Triton X-100; mouse anti-MDM2 (4B2) with goat anti-CD276, rabbit anti-p53 (CM-1) or rabbit anti-HSP70; Duolink probes; endogenous proteins in situ

B1: cluster of differentiation 276 (CD276/B7-H3) (receptor, UniProt Q5ZPR3 29-534)
chain: LEVQVPEDPVVALVGTDATLCCSFSPEPGFSLAQLNLIWQLTDTKQLVHSFAEGQDQGSAYANRTALFPDLLAQGNASLRLQRVRVADEGSFTCFVSIRDFGSAAVSLQVAAPYSKPSMTLEPNKDLRPGDTVTITCSSYQGYPEAEVFWQDGQGVPLTGNVTTSQMANEQGLFDVHSILRVVLGANGTYSCLVRNPVLQQDAHSSVTITPQRSPTGAVEVQVPEDPVVALVGTDATLRCSFSPEPGFSLAQLNLIWQLTDTKQLVHSFTEGRDQGSAYANRTALFPDLLAQGNASLRLQRVRVADEGSFTCFVSIRDFGSAAVSLQVAAPYSKPSMTLEPNKDLRPGDTVTITCSSYRGYPEAEVFWQDGQGVPLTGNVTTSQMANEQGLFDVHSVLRVVLGANGTYSCLVRNPVLQQDAHGSVTITGQPMTFPPEALWVTVGLSVCLIALLVALAFVCWRKIKQSCEEENAGAEDQDGEGEGSKTALQPLKHSDSKEDDGQEIA
binding: binds
